Laboratory results: PubChem BioAssay AID504744 (Drosophila RNAi Screening Center, 2011)
The deposit covers about 23,000 reagents; below is a random part of those with a known target gene and a result. Of all reagents, 98 (0.43%) are marked active. 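Only hit calls are given; the phospho-dAkt signals, z-scores and hit direction were not deposited.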 Reagents against one gene are numbered here.

Aim: 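Uncover factors, including feedback loops, that control dAkt activation in fly cells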 (primary screen)
Cell system: Drosophila Kc167 cells
Knock-down reagent: long dsRNA against Drosophila genes, 250 ng dsRNA per well of a 384-well plate
Duration: 3 days of knock-down, then overnight serum-free starvation before stimulation
Challenge: bovine insulin at 387 nM for 10 minutes after 12 h without serum
Measurement: 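Per-well phospho-dAkt level from an in-cell fluorescent antibody stain, divided by a DNA-dye signal; log2 residuals turned into z-scores that take cell number into account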
Hit rule: 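Under insulin, a gene counts as a hit if the average z-score of two replicates lies above 2.5 or below -2.5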

With CG7148 (GeneID 40432), how do the results read?
activity call: inactive

Which result is listed for I-3 (GeneID 33068)?
activity call: inactive

How did the screen score CG14131 (GeneID 39328)?
activity call: inactive

What is on record for CG15211 (GeneID 32006)?
activity call: inactive

For Neurochondrin (GeneID 40796), what was measured?
activity call: inactive

Which result is listed for RhoGAP19D (GeneID 33048) #1?
activity call: inactive

For RhoGAP19D (GeneID 33048) #2, how do the results read?
activity call: inactive

What did the screen give for Uba3 (GeneID 36539)?
activity call: inactive

With Acox57D-d (GeneID 37446), how do the results read?
activity call: inactive

What is on record for CG30091 (GeneID 246449)?
activity call: inactive

With fau (GeneID 41291) #1, how do the results read?
activity call: inactive

For fau (GeneID 41291) #2, how do the results read?
activity call: inactive

Which result is listed for fau (GeneID 41291) #3?
activity call: inactive

For fau (GeneID 41291) #4, how do the results read?
activity call: inactive

With fau (GeneID 41291) #5, what does the deposit list?
activity call: inactive

What did the screen give for fau (GeneID 41291) #6?
activity call: inactive

With Ubc87F (GeneID 41682), how do the results read?
activity call: inactive

With DCTN5-p25 (GeneID 34873), what was measured?
activity call: inactive

For CG6607 (GeneID 42925), what does the deposit list?
activity call: inactive

What did the screen give for CG11550 (GeneID 43731)?
activity call: inactive

With Cpr31A (GeneID 2768918), what does the deposit list?
activity call: inactive

For CG32432 (GeneID 40310) #1, what does the deposit list?
activity call: inactive

With CG32432 (GeneID 40310) #2, what does the deposit list?
activity call: inactive

For CG32432 (GeneID 40310) #3, what was measured?
activity call: inactive

What is on record for CG14569 (GeneID 40417)?
activity call: inactive

For CG33919 (GeneID 3772720), what was measured?
activity call: inactive

What is on record for CG11241 (GeneID 40492) #1?
activity call: inactive

With CG11241 (GeneID 40492) #2, what was measured?
activity call: inactive

With CG13071 (GeneID 39781), what does the deposit list?
activity call: inactive

Which result is listed for CG33469 (GeneID 2768832)?
activity call: inactive

For RpS13 (GeneID 34149), what was measured?
activity call: inactive

With Srp68 (GeneID 39028), what does the deposit list?
activity call: inactive

Which result is listed for Tk (GeneID 41456) #1?
activity call: inactive

What did the screen give for Tk (GeneID 41456) #2?
activity call: inactive

For Eig71Eh (GeneID 39709), what was measured?
activity call: inactive

For Snap29 (GeneID 37774), what was measured?
activity call: inactive

Which result is listed for THADA (GeneID 33001)?
activity call: inactive

With Atg6 (GeneID 42850), what was measured?
activity call: inactive

With CG17751 (GeneID 42336) #1, how do the results read?
activity call: inactive

With CG17751 (GeneID 42336) #2, what was measured?
activity call: inactive

What did the screen give for Cyp4ac2 (GeneID 33755)?
activity call: inactive

Which result is listed for Zpr1 (GeneID 31851)?
activity call: inactive

What is on record for LysRS (GeneID 31904)?
activity call: inactive

Which result is listed for CG13744 (GeneID 35906)?
activity call: inactive

How did the screen score Slik (GeneID 37893)?
activity call: inactive

How did the screen score Sr-CIV (GeneID 33576)?
activity call: inactive

With ZnT63C (GeneID 38407) #1, how do the results read?
activity call: inactive

For ZnT63C (GeneID 38407) #2, what was measured?
activity call: inactive

What is on record for ZnT63C (GeneID 38407) #3?
activity call: inactive

For ZnT63C (GeneID 38407) #4, what was measured?
activity call: inactive

With fw (GeneID 32162), what does the deposit list?
activity call: inactive

With CG30283 (GeneID 37454), what does the deposit list?
activity call: inactive

Which result is listed for CG44836 (GeneID 39825)?
activity call: inactive

Which result is listed for CG10910 (GeneID 37052)?
activity call: inactive

Which result is listed for CG33752 (GeneID 3771860)?
activity call: inactive

With Irp-1B (GeneID 41269), what was measured?
activity call: inactive

With CG12868 (GeneID 36620), what does the deposit list?
activity call: inactive

What did the screen give for Cyp317a1 (GeneID 36667)?
activity call: inactive

Which result is listed for CG14879 (GeneID 41982)?
activity call: inactive

What is on record for Alg3 (GeneID 37754)?
activity call: inactive

What is on record for eg (GeneID 40428)?
activity call: inactive

Which result is listed for CG42795 (GeneID 41252) #1?
activity call: inactive

How did the screen score CG42795 (GeneID 41252) #2?
activity call: inactive

How did the screen score Task6 (GeneID 41671)?
activity call: inactive

Which result is listed for CheA75a (GeneID 40011)?
activity call: inactive

For CG5267 (GeneID 36875), what was measured?
activity call: inactive

With CG9109 (GeneID 33844), what does the deposit list?
activity call: inactive

For AstC (GeneID 34537), what was measured?
activity call: inactive

What is on record for CG10486 (GeneID 38664)?
activity call: inactive

With CG30158 (GeneID 50149) #1, what was measured?
activity call: inactive

How did the screen score CG30158 (GeneID 50149) #2?
activity call: inactive

What did the screen give for CG30158 (GeneID 50149) #3?
activity call: inactive

With CG30158 (GeneID 50149) #4, what does the deposit list?
activity call: inactive

Not a retest: 9 of the entries above.
CG32432 (GeneID 40310) #1: activity call = inactive
CG32432 (GeneID 40310) #2: activity call = inactive
CG32432 (GeneID 40310) #3: activity call = inactive
CG14569 (GeneID 40417): activity call = inactive
CG33919 (GeneID 3772720): activity call = inactive
CG11241 (GeneID 40492) #1: activity call = inactive
CG11241 (GeneID 40492) #2: activity call = inactive
CG13071 (GeneID 39781): activity call = inactive
CG33469 (GeneID 2768832): activity call = inactive
